Results reported in doi:10.1101/2020.03.15.992727.
Positions count from the first letter of the chain named. These are yes or no findings as the source states them, for the method shown. In cells and extracts the contact can be indirect. Here binding means that the protein was enriched with, or labelled near, the bait; the list need not be complete. For some assays here: No binding means not detected with the bait. Sequences can lack the tags named with a protein. Blank lines part the entries; values can stand above or below the molecule they belong to.

Protein sequences, listed by entry. Tags and fused reporters are not part of them.
UniProt P56962: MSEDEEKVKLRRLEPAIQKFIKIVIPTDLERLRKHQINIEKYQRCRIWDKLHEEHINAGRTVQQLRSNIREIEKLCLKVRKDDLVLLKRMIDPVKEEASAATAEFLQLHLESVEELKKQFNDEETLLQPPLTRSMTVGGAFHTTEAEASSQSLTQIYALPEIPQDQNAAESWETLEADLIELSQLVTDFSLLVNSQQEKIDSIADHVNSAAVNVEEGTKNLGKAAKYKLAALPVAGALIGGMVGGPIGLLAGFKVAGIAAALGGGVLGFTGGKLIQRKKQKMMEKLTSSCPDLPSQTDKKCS
UniProt A2RRP1: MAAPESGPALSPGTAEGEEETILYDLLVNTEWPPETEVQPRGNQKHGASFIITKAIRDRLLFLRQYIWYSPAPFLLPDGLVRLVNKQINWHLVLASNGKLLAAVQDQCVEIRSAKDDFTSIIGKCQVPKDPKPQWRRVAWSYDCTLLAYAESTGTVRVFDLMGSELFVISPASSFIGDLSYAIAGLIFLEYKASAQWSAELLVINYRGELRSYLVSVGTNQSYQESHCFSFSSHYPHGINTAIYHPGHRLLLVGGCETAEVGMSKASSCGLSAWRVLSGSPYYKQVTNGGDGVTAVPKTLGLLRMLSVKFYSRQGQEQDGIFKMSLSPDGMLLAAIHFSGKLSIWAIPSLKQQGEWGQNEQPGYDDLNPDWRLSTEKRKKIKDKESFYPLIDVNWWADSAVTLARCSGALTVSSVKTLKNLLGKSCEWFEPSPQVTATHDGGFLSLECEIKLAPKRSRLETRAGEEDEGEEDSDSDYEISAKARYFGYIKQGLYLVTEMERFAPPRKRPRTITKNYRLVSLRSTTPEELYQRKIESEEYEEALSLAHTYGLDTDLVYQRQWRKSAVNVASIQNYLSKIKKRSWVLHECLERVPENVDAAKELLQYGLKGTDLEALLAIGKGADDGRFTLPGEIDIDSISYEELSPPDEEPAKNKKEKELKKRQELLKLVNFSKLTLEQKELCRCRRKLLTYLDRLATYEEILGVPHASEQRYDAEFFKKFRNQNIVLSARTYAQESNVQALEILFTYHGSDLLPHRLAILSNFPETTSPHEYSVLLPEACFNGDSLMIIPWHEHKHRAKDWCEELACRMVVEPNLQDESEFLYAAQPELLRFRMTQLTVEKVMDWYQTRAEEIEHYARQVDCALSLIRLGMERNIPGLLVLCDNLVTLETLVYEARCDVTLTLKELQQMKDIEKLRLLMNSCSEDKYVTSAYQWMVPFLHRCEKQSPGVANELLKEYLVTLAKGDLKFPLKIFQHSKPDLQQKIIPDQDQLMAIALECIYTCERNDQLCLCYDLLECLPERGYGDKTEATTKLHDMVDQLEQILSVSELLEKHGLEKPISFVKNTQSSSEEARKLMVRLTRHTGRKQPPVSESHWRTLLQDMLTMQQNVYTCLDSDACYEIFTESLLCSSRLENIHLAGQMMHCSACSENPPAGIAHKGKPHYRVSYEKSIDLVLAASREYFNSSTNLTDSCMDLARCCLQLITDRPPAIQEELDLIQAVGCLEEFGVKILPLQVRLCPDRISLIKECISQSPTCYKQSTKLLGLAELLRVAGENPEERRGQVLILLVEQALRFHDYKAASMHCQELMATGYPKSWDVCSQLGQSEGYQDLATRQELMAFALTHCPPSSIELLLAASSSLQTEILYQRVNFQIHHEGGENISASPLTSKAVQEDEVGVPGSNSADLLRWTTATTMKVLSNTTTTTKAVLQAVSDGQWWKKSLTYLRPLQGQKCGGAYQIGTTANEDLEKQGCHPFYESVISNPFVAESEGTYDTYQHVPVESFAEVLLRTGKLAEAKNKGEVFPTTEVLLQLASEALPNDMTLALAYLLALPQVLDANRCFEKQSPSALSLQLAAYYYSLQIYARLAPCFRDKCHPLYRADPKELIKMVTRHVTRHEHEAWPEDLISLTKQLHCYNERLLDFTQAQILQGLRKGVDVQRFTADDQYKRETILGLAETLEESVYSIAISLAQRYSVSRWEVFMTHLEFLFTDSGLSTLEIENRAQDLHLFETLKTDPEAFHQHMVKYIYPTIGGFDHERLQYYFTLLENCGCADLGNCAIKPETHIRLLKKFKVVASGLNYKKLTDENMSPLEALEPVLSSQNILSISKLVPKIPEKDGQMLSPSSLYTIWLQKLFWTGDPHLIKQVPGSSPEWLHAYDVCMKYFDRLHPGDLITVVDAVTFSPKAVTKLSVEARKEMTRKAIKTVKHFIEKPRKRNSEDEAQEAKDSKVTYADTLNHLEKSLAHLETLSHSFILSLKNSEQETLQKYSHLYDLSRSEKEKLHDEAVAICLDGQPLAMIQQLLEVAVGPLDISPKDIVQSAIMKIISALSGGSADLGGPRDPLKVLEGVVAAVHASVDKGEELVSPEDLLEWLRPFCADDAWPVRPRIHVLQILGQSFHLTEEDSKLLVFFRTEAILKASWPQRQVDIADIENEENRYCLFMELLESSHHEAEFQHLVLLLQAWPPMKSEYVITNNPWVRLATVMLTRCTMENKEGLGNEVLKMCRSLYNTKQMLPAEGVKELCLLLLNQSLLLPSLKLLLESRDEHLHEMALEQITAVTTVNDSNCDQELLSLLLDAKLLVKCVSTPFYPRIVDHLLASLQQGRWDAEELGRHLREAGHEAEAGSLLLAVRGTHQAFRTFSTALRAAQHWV
UniProt P46459: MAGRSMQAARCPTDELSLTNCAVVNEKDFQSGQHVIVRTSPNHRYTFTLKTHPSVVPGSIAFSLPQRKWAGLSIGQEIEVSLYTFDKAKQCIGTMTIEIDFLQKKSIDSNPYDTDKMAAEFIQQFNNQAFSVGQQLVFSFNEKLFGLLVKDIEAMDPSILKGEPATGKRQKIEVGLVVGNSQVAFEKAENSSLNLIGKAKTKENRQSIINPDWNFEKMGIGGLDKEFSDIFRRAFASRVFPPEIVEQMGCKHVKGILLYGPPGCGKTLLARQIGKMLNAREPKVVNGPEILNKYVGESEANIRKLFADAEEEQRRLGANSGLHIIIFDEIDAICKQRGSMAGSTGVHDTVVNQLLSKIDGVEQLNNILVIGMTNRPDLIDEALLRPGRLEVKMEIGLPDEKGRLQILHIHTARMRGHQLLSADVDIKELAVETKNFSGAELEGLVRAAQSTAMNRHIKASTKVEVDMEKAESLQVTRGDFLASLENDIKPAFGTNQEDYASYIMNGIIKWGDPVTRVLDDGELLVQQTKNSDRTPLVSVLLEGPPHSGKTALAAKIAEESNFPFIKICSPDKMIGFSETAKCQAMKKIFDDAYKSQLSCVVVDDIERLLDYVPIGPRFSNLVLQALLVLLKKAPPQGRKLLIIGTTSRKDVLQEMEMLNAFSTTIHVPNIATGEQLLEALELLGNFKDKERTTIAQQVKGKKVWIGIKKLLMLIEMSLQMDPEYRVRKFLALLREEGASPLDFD

Experiments:
Test in all cases: affinity purification with mass spectrometry
[1] = target: T1, GFP-tagged human Ykt6 phospho-ablative mutant (S174A) (human) (UniProt O15498)
T1 sequence: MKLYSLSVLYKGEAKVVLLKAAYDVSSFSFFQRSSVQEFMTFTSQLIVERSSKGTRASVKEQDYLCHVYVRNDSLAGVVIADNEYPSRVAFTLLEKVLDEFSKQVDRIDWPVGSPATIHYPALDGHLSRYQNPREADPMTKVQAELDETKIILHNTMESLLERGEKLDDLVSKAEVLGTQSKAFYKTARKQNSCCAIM

[2] = target: T2, GFP-tagged wild-type (WT) human Ykt6 (human) (UniProt O15498)
T2 sequence: T1 sequence with A174S

[3] = target: T3, GFP-tagged human Ykt6 phospho-mimetic mutant (S174D) (human) (UniProt O15498)
T3 sequence: T1 sequence with A174D

binding [1]: binds
Molecule: Stx17 (from UniProt P56962 1-302)

binding [2]: binds
binding [3]: binds
binding [1]: binds
Molecule: NBAS (from UniProt A2RRP1 1-2371)

binding [3]: binds
binding [1]: binds
Molecule: vesicle fusion ATPase NSF (from UniProt P46459 1-744) (enzyme)

binding [2]: binds
binding [3]: binds
binding [1]: binds
B1: Stx18 (protein, UniProt Q9P2W9 1-335)
chain: MAVDITLLFRASVKTVKTRNKALGVAVGGGVDGSRDELFRRSPRPKGDFSSRAREVISHIGKLRDFLLEHRKDYINAYSHTMSEYGRMTDTERDQIDQDAQIFMRTCSEAIQQLRTEAHKEIHSQQVKEHRTAVLDFIEDYLKRVCKLYSEQRAIRVKRVVDKKRLSKLEPEPNTKTRESTSSEKVSQSPSKDSEENPATEERPEKILAETQPELGTWGDGKGEDELSPEEIQMFEQENQRLIGEMNSLFDEVRQIEGRVVEISRLQEIFTEKVLQQEAEIDSIHQLVVGATENIKEGNEDIREAIKNNAGFRVWILFFLVMCSFSLLFLDWYDS

binding [2]: binds
binding [3]: binds
B2: VTI1B (protein, UniProt Q9UEU0 1-232)
chain: MASSAASSEHFEKLHEIFRGLHEDLQGVPERLLGTAGTEEKKKLIRDFDEKQQEANETLAEMEEELRYAPLSFRNPMMSKLRNYRKDLAKLHREVRSTPLTATPGGRGDMKYGIYAVENEHMNRLQSQRAMLLQGTESLNRATQSIERSHRIATETDQIGSEIIEELGEQRDQLERTKSRLVNTSENLSKSRKILRSMSRKVTTNKLLLSIIILLELAILGGLVYYKFFRSH

binding [2]: binds
binding [3]: binds
B3: SNAP47 (protein, UniProt Q5SQN1 1-464)
chain: MRAARRGLHCAGAERPRRRGRLWDSSGVPQRQKRPGPWRTQTQEQMSRDVCIHTWPCTYYLEPKRRWVTGQLSLTSLSLRFMTDSTGEILVSFPLSSIVEIKKEASHFIFSSITILEKGHAKHWFSSLRPSRNVVFSIIEHFWRELLLSQPGAVADASVPRTRGEELTGLMAGSQKRLEDTARVLHHQGQQLDSVMRGLDKMESDLEVADRLLTELESPAWWPFSSKLWKTPPETKPREDVSMTSCEPFGKEGILIKIPAVISHRTESHVKPGRLTVLVSGLEIHDSSSLLMHRFEREDVDDIKVHSPYEISIRQRFIGKPDMAYRLISAKMPEVIPILEVQFSKKMELLEDALVLRSARTSSPAEKSCSVWHAASGLMGRTLHREPPAGDQEGTALHLQTSLPALSEADTQELTQILRRMKGLALEAESELERQDEALDGVAAAVDRATLTIDKHNRRMKRLT

binding [2]: binds
binding [3]: binds
B4: Stx8 (protein, UniProt Q9UNK0 1-236)
chain: MAPDPWFSTYDSTCQIAQEIAEKIQQRNQYERKGEKAPKLTVTIRALLQNLKEKIALLKDLLLRAVSTHQITQLEGDRRQNLLDDLVTRERLLLASFKNEGAEPDLIRSSLMSEEAKRGAPNPWLFEEPEETRGLGFDEIRQQQQKIIQEQDAGLDALSSIISRQKQMGQEIGNELDEQNEIIDDLANLVENTDEKLRNETRRVNMVDRKSASCGMIMVILLLLVAIVVVAVWPTN

binding [2]: binds
binding [3]: binds
binding [1]: binds
B5: GOSR2 (protein, UniProt O14653 1-212)
chain: MDPLFQQTHKQVHEIQSCMGRLETADKQSVHIVENEIQASIDQIFSRLERLEILSSKEPPNKRQNARLRVDQLKYDVQHLQTALRNFQHRRHAREQQERQREELLSRTFTTNDSDTTIPMDESLQFNSSLQKVHNGMDDLILDGHNILDGLRTQRLTLKGTQKKILDIANMLGLSNTVMRLIEKRAFQDKYFMIGGMLLTCVVMFLVVQYLT

binding [2]: binds
binding [3]: no binding
B6: Beta Galactosidase GLB1 (enzyme, UniProt P16278 29-677)
chain: QRMFEIDYSRDSFLKDGQPFRYISGSIHYSRVPRFYWKDRLLKMKMAGLNAIQTYVPWNFHEPWPGQYQFSEDHDVEYFLRLAHELGLLVILRPGPYICAEWEMGGLPAWLLEKESILLRSSDPDYLAAVDKWLGVLLPKMKPLLYQNGGPVITVQVENEYGSYFACDFDYLRFLQKRFRHHLGDDVVLFTTDGAHKTFLKCGALQGLYTTVDFGTGSNITDAFLSQRKCEPKGPLINSEFYTGWLDHWGQPHSTIKTEAVASSLYDILARGASVNLYMFIGGTNFAYWNGANSPYAAQPTSYDYDAPLSEAGDLTEKYFALRNIIQKFEKVPEGPIPPSTPKFAYGKVTLEKLKTVGAALDILCPSGPIKSLYPLTFIQVKQHYGFVLYRTTLPQDCSNPAPLSSPLNGVHDRAYVAVDGIPQGVLERNNVITLNITGKAGATLDLLVENMGRVNYGAYINDFKGLVSNLTLSSNILTDWTIFPLDTEDAVRSHLGGWGHRDSGHHDEAWAHNSSNYTLPAFYMGNFSIPSGIPDLPQDTFIQFPGWTKGQVWINGFNLGRYWPARGPQLTLFVPQHILMTSAPNTITVLELEWAPCSSDDPELCAVTFVDRPVIGSSVTYDHPSKPVEKRLMPPPPQKNKDSWLDHV

binding [2]: binds
binding [3]: binds
binding [1]: binds
B7: Snap-α (NAPA gene) (protein, UniProt P54920 1-295)
chain: MDNSGKEAEAMALLAEAERKVKNSQSFFSGLFGGSSKIEEACEIYARAANMFKMAKNWSAAGNAFCQAAQLHLQLQSKHDAATCFVDAGNAFKKADPQEAINCLMRAIEIYTDMGRFTIAAKHHISIAEIYETELVDIEKAIAHYEQSADYYKGEESNSSANKCLLKVAGYAALLEQYQKAIDIYEQVGTNAMDSPLLKYSAKDYFFKAALCHFCIDMLNAKLAVQKYEELFPAFSDSRECKLMKKLLEAHEEQNVDSYTESVKEYDSISRLDQWLTTMLLRIKKTIQGDEEDLR
